Record: PubChem BioAssay AID1259405 (NCATS, 2018)
Screen: 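Knock-downs that lift recombinant protein yield in hamster ovary cells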 (primary screen). System: Chinese hamster CHO-K1 ovary cells with stable secreted eGFP expression. Knock-down reagent: single siRNA against mouse genes, 0.8 pmol siRNA per well (2 µl of 400 nM stock). Duration: 3 days. Detection: 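Percent of the per-plate non-targeting control median for intracellular GFP per well by laser scanning cytometry and for cell viability by ATP luminescence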. Reading the numbers: GFP, % of control: higher = more GFP per well, higher productivity; viability (ATP), % of control: higher = more viable cells (more ATP). Rule for the call: 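Called active when intracellular GFP, relative to negative control, is at or above 120%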.
This is a random part of about 50,000 reagents tested. Over the whole deposit, about 4,000 (8%) got an active call. 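Mouse siRNA library applied to hamster cells; one well for each siRNA.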 The numbers tell different reagents against one gene apart.

no.	gene	reagent no.	GFP, % of control	viability (ATP), % of control	Outcome
1	Tpd52l2 (tumor protein D52-like 2)	1	41.9	47.9	inactive
2	Tpd52l2 (tumor protein D52-like 2)	2	78.7	87.7	inactive
3	Tpd52l2 (tumor protein D52-like 2)	3	120	163	active
4	Meox1 (mesenchyme homeobox 1)	1	102	102	inactive
5	Meox1 (mesenchyme homeobox 1)	2	85.9	95.9	inactive
6	Meox1 (mesenchyme homeobox 1)	3	74.2	59.5	inactive
7	Ankrd54 (ankyrin repeat domain 54)	1	95.2	79.2	inactive
8	Ankrd54 (ankyrin repeat domain 54)	2	76.9	80.8	inactive
9	Ankrd54 (ankyrin repeat domain 54)	3	119	114	inactive
10	Med16 (mediator complex subunit 16)	1	110	104	inactive
11	Med16 (mediator complex subunit 16)	2	66.8	63.5	inactive
12	Med16 (mediator complex subunit 16)	3	82.5	63.9	inactive
13	Sh3glb1 (SH3-domain GRB2-like B1 (endophilin))	1	66.3	73.2	inactive
14	Sh3glb1 (SH3-domain GRB2-like B1 (endophilin))	2	53.3	53.5	inactive
15	Sh3glb1 (SH3-domain GRB2-like B1 (endophilin))	3	0	148	inactive
16	Timm13 (translocase of inner mitochondrial membrane 13)	1	57.9	32.5	inactive
17	Timm13 (translocase of inner mitochondrial membrane 13)	2	49.5	54	inactive
18	Timm13 (translocase of inner mitochondrial membrane 13)	3	54.4	103	inactive
19	Il1rl1 (interleukin 1 receptor-like 1)	1	53.2	34.8	inactive
20	Il1rl1 (interleukin 1 receptor-like 1)	2	86.6	59.1	inactive
21	Il1rl1 (interleukin 1 receptor-like 1)	3	89.6	59.6	inactive
22	Frmd8 (FERM domain containing 8)	1	51.3	47.9	inactive
23	Frmd8 (FERM domain containing 8)	2	55.3	91.1	inactive
24	Frmd8 (FERM domain containing 8)	3	66.3	60.5	inactive
25	Ahcy (S-adenosylhomocysteine hydrolase)	1	102	76.5	inactive
26	Ahcy (S-adenosylhomocysteine hydrolase)	2	89.2	44.3	inactive
27	Ahcy (S-adenosylhomocysteine hydrolase)	3	77.3	73	inactive
28	Fam53b (family with sequence similarity 53, member B)	1	85.4	101	inactive
29	Fam53b (family with sequence similarity 53, member B)	2	57	79.8	inactive
30	Wdr4 (WD repeat domain 4)	1	95.8	64.3	inactive
31	Wdr4 (WD repeat domain 4)	2	77.8	85.8	inactive
32	Wdr4 (WD repeat domain 4)	3	91.3	87.8	inactive
33	B3gnt3	1	98.6	68.5	inactive
34	B3gnt3	2	120	115	inactive
35	B3gnt3	3	142	104	active
